# Measured values reported in the supplement of paper PMC6143611.
# Where a name gives a salt, the structure may show the parent alone. ± gives the uncertainty stated by the source. The list shows a part of the results. Part of the spread comes from offsets between plates or batches.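 At 6 dpf, larvae had a heat-shock-induced fluorescent stripe placed in rod outer segments; shedding distance, from stripe to outer segment tip, was measured in confocal stacks, roughly three fish per compound. Controls received 0.2% DMSO vehicle; compounds were flagged for ≥20% change versus same-week control and p < 0.001 (Dunnett test, mixed-effects models).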
# Tested on: Danio rerio larva rod photoreceptor outer segment
# Assay: rod outer segment growth distance Dg, difference from same-week DMSO control mean; higher = more outer segment growth
# Conditions: 20 µM; treatment time: 4 days (6-10 dpf)
row,SMILES,rod outer segment growth distance Dg
1,Cc1nc(Nc2ncc(C(=O)Nc3c(C)cccc3Cl)s2)cc(N2CCN(CCO)CC2)n1 [Dasatinib],0 ± 0.22 um
2,C[C@H](Nc1ncnc2nc[nH]c12)c1cc2cccc(Cl)c2c(=O)n1-c1ccccc1,-0.6 ± 0.17 um
3,C[C@@H](O)[C@H]1C(=O)N2C(C(=O)OCOC(=O)C(C)(C)C)=C(SC3CN(C4=NCCS4)C3)[C@H](C)[C@H]12 [Tebipenem Pivoxil],0.37 ± 0.32 um
4,Cc1nnc(C(=O)NC(C)(C)c2nc(C(=O)NCc3ccc(F)cc3)c(O)c(=O)n2C)o1 [Raltegravir (MK-0518)],-0.52 ± 0.28 um
5,Cc1cccc(C)c1OCC(=O)N[C@@H](Cc1ccccc1)[C@@H](O)C[C@H](Cc1ccccc1)NC(=O)[C@H](C(C)C)N1CCCNC1=O [Lopinavir],-0.49 ± 0.21 um

# Tested on: Danio rerio larva rod photoreceptor outer segment
# Assay: rod outer segment shedding distance Ds, difference from same-week DMSO control mean; higher = less outer segment shedding
# Conditions: 20 µM; treatment time: 4 days (6-10 dpf)
row,SMILES,rod outer segment shedding distance Ds
1,COc1cc2c(cc1OC)[C@@H]1Cc3ccc(OC)c(OC)c3CN1CC2 [Rotundine],-0.2 ± 0.24 um
2,CCN(CC)CCNC(=O)c1c(C)[nH]c(/C=C2\C(=O)Nc3ccc(F)cc32)c1C [Sunitinib Malate],-0.71 ± 0.29 um
3,Cc1cc(Cn2cnc3c2CC(C(=O)O)N(C(=O)C(c2ccccc2)c2ccccc2)C3)ccc1N(C)C (stereo not drawn),-0.1 ± 0.3 um
4,Nc1nc2c(ncn2COCCO)c(=O)[nH]1 [Aciclovir],-0.63 ± 0.13 um
5,Cn1cc(-c2ccc3nnc(C(F)(F)c4ccc5ncccc5c4)n3n2)cn1,-0.35 ± 0.21 um
6,CCn1cc(C(=O)O)c(=O)c2ccc(C)nc21 [Nalidixic acid],-3.28 ± 1.2 um
7,Cc1ccc(Nc2nccc(N(C)c3ccc4c(C)n(C)nc4c3)n2)cc1S(N)(=O)=O [Pazopanib],0.01 ± 0.13 um
8,CC1(C)CCC(c2ccc(Cl)cc2)=C(CN2CCN(c3ccc(C(=O)NS(=O)(=O)c4ccc(N[C@H](CCN5CCOCC5)CSc5ccccc5)c(S(=O)(=O)C(F)(F)F)c4)cc3)CC2)C1 [ABT-263 (Navitoclax)],-1.79 ± 0.32 um
9,CCO[C@@H]1OC(=O)C[C@@H]1NC(=O)[C@@H]1CCCN1C(=O)[C@@H](NC(=O)c1ccc(N)c(Cl)c1)C(C)(C)C,-0.7 ± 0.38 um
10,COCCCN1CCC(NC(=O)c2cc(Cl)c(N)c3c2OCC3)CC1 [Prucalopride],-0.43 ± 0.13 um
11,COc1ccccc1Oc1c(NS(=O)(=O)c2ccc(C(C)(C)C)cc2)nc(-c2ncccn2)nc1OCCO [Bosentan Hydrate],-0.25 ± 0.12 um
12,OCCn1cc(-c2cnc3nnn(Cc4ccc5ncccc5c4)c3n2)cn1,0.1 ± 0.21 um
13,CCc1c(O)cc(O)c(C(=O)c2ccc(OCCN3CCOCC3)c(OC)c2)c1CC(=O)N(CCOC)CCOC,0.17 ± 0.14 um
14,Cn1c(=O)c2c(ncn2CC(O)CO)n(C)c1=O (stereo not drawn) [Dyphylline],0.04 ± 0.2 um
15,CCN1CCCC1CNC(=O)c1cc(S(=O)(=O)CC)c(N)cc1OC (stereo not drawn) [Amisulpride],-0.7 ± 0.18 um
16,COc1cc(NS(=O)(=O)c2ccc(N)cc2)nc(OC)n1 [Sulphadimethoxine],0.19 ± 0.26 um
17,Cc1ccc(S(=O)(=O)n2c(N)nc3ccccc32)cc1 [ML130 (Nodinitib-1)],-0.83 ± 0.17 um
18,CN(C)CC/C=C1/c2ccccc2COc2ccc(CC(=O)O)cc21 [Olopatadine HCl],-0.19 ± 0.3 um
19,S=c1[nH]cnc2nc[nH]c12 [Mercaptopurine (6-MP)],-0.16 ± 0.15 um

row,SMILES,rod outer segment shedding distance Ds
1,C[C@H](CS)C(=O)N1CCC[C@H]1C(=O)O [Captopril],-0.52 ± 0.27 um
2,CN1CCN(c2c(F)cc3c(=O)c(C(=O)O)cn4c3c2OCN4C)CC1 [Marbofloxacin],-0.71 ± 0.18 um
3,COc1ccc(C(=O)CC(=O)c2ccc(C(C)(C)C)cc2)cc1 [Avobenzone],-0.8 ± 0.3 um
4,C[C@H](CCC(=O)O)[C@H]1CC[C@H]2[C@@H]3[C@@H](O)C[C@@H]4C[C@H](O)CC[C@]4(C)[C@H]3CC[C@]12C [Ursodiol],0.76 ± 0.15 um
5,Cc1cc([C@@H](C)Nc2ccccc2C(=O)O)c2nc(N3CCOCC3)cc(=O)n2c1,-0.13 ± 0.18 um
6,Cc1ccc2c(=O)c3cccc(CC(=O)O)c3oc2c1C [DMXAA (Vadimezan)],-0.51 ± 0.16 um
7,Nc1ccc(C(=O)Nc2cccc(-c3nc(N4CCOCC4)c4oc5ncccc5c4n3)c2)cn1,-0.39 ± 0.22 um
8,CCOC(=O)C1=C[C@@H](OC(CC)CC)[C@H](NC(C)=O)[C@@H](N)C1 [Oseltamivir phosphate],-0.58 ± 0.14 um
9,C[C@@H]1CN(c2c(F)c(N)c3c(=O)c(C(=O)O)cn(C4CC4)c3c2F)C[C@H](C)N1 [Sparfloxacin],-0.63 ± 0.28 um
10,O=C1c2ccccc2C(=O)C1c1ccccc1 [Phenindione],-0.49 ± 0.28 um
11,CC[C@H]1OC(=O)[C@H](C)[C@@H](O[C@H]2C[C@@](C)(OC)[C@@H](O)[C@H](C)O2)[C@H](C)[C@@H](O[C@@H]2O[C@H](C)C[C@H](N(C)C)[C@H]2O)[C@](C)(O)C[C@@H](C)CN(C)[C@H](C)[C@@H](O)[C@]1(C)O [Azithromycin],-0.77 ± 0.3 um
12,CCOc1nc2cccc(C(=O)O)c2n1Cc1ccc(-c2ccccc2-c2nnn[nH]2)cc1 [Candesartan],0.21 ± 0.14 um
13,Cn1cc(/C=C/C(=O)c2cccc(F)c2)cc1/C=C/C(=O)NO,-0.63 ± 0.19 um
14,CCC[C@H](NC(=O)[C@@H]1[C@H]2CCC[C@H]2CN1C(=O)[C@@H](NC(=O)[C@@H](NC(=O)c1cnccn1)C1CCCCC1)C(C)(C)C)C(=O)C(=O)NC1CC1 [Telaprevir (VX-950)],-0.41 ± 0.16 um
15,Cc1nc(Nc2ncc(C(=O)Nc3c(C)cccc3Cl)s2)cc(N2CCN(CCO)CC2)n1 [Dasatinib],-0.74 ± 0.24 um
16,C[C@H](Nc1ncnc2nc[nH]c12)c1cc2cccc(Cl)c2c(=O)n1-c1ccccc1,0.07 ± 0.12 um
17,C[C@@H](O)[C@H]1C(=O)N2C(C(=O)OCOC(=O)C(C)(C)C)=C(SC3CN(C4=NCCS4)C3)[C@H](C)[C@H]12 [Tebipenem Pivoxil],0.03 ± 0.35 um
18,Cc1nnc(C(=O)NC(C)(C)c2nc(C(=O)NCc3ccc(F)cc3)c(O)c(=O)n2C)o1 [Raltegravir (MK-0518)],-0.73 ± 0.3 um
19,Cc1cccc(C)c1OCC(=O)N[C@@H](Cc1ccccc1)[C@@H](O)C[C@H](Cc1ccccc1)NC(=O)[C@H](C(C)C)N1CCCNC1=O [Lopinavir],-0.8 ± 0.25 um

# Single values from the entries so far.
# Entry of Cc1cc([C@@H](C)Nc2ccccc2C(=O)O)c2nc(N3CCOCC3)cc(=O)n2c1 under rod outer segment shedding distance Ds: -0.13 ± 0.18 um
# Entry of COc1ccc(C(=O)CC(=O)c2ccc(C(C)(C)C)cc2)cc1 [Avobenzone] under rod outer segment shedding distance Ds: -0.8 ± 0.3 um
# Entry of C[C@@H]1CN(c2c(F)c(N)c3c(=O)c(C(=O)O)cn(C4CC4)c3c2F)C[C@H](C)N1 [Sparfloxacin] under rod outer segment shedding distance Ds: -0.63 ± 0.28 um
